B1: il2ra_site1_3nfp_sap_10_mot_119b7766384adbe86006a62bce89dba1_0001_af2_000000092_0001_18_32_H_._HHH_b2_00752_0001_0000100003_0000001_1_0001 (protein)
chain: SSSSNQALEWLEEAAEKAFEEGNRHDIRAILRLLEEALKKFGNPEAKEVVRIIEELLEELSSSSS
B2: il2ra_site2_2erj_sap_20_mot_HHH_b1_01338_000000092_0001_1_18_H_._HHH_b1_00894_0001_0000800019_0000001_0_0001 (protein)
chain: SSSSDERIRLAMQLVDELAQEFNLDAEQLHALWELAKELLERGVSEEELREELERLVEELNSSSS
B3: il2ra_site2_2erj_sap_22_mot_c2bf78bdce995293a161f7082e24b401_0001_af2_000000082_0001_17_32_H_._HHH_b2_05133_0001_0000600016_0000001_0_0001 (protein)
chain: SSSSDEELHEIFELLSLLLEAIQKGDDELFKKLVEEVRQLIEEKGSPNLREILEWLERHFHSSSS
B4: il2ra_site2_3nfp_sap_14_mot_HHH_b2_00746_000000285_0001_20_36_H_._HHH_b1_07255_af2_0001_0000100001_0000001_0_0001 (protein)
chain: SSSSKQEEYLRAALELAKEALEAGDPEVARRHAEIALLAAEDARDPELFEEIEELLEEIRGSSSS
B5: il2ra_site1_3nfp_normal_mot_HHH_b1_03753_af2_000000088_0001_41_54_H_._HHH_b1_07972_af2_0001_0000200013_0000001_0_af2pred_0001_af2pred_swapped (protein)
chain: SSSSSERERVRRILERAMEAAFNGNPEEAKELLKEAEELARELGNERLLKKIEYDLRVIEGSSSS
B6: il2ra_site1_2b5i_normal_mot_HHH_b2_04910_000000118_0001_1_19_H_._HHH_b1_05884_0001_0000500029_0000001_0 (protein)
chain: SSSSSEETRELQELFREADELDRRGNEEEAEEVLREAIELARQAGSRSMLKMLESALKELGSSSS
B7: il2ra_site2_3nfp_normal_mot_HHH_b2_06150_000000251_0001_1_17_H_._HHH_b2_07927_0001_0000200027_0000001_1 (protein)
chain: SSSSDEEEREVERLLKEAKELLEEGDPEEARQVLAEAAHLAFRLGNVELFAEIAKLYLELGSSSS
B8: il2ra_site2_2erj_sap_25_mot_3b06bd03f1c6bceadc68eab912867b79_0001_000000296_0001_36_50_H_._HHH_b2_02691_0001_0000100001_0000001_1_0001 (protein)
chain: SSSSTEELHELYKLLVELLRLWAEGDEEKIEELLRRVEELAEKLQSESAREIVELVQKELSSSSS
B9: il2ra_site1_3nfp_sap_16_mot_HHH_b1_00630_af2_000000193_0001_42_55_H_._190733a505cf72e9f5bb281964386224_0001_1_af2_0001_0000500030_0000001_0_0001 (protein)
chain: THLRHVTKMIEEMAKKMGVPSVEVEVHNGTVHVRLEGTDEAARAAAEAAESMAEFAGISFEIEHE
B10: il2ra_site1_2b5i_normal_mot_HHH_b2_04910_000000118_0001_1_19_H_._HHH_b1_00058_af2_0001_0000900023_0000001_0_af2pred_dldesign_0_af2pred (protein)
chain: SSSSSAAEEARALFLKANELKQAGKEEEAKKVLEEALEKARAAGANLLARMIELALEQLESSSSS
B11: il2ra_site2_3nfp_normal_mot_HHH_b1_05628_af2_000000064_0001_19_35_H_._HHH_b1_05635_af2_0001_0000200017_0000001_0_af2pred_0001_1_af2pred_swapped (protein)
chain: SSSSDEEVEELLERAKELLERGNLEEAEKVIRRAASLASELNDHELFAIASELMWELLELLSSSS
B12: il2ra_site2_3nfp_sap_17_mot_HHH_b1_07052_000000239_0001_40_58_H_._3f793dc3d3e05f21786c6523247b6786_0001_1_0001_0000300009_0000001_0_0001 (protein)
chain: SSSSDHEEDLLRAVILLARLAYEQGDPEAAERHLRMAEKTARDAGNEELLKEIEKLLEEINSSSS
B13: il2ra_site2_3nfp_normal_mot_HHH_b2_03679_af2_000000123_0001_41_56_H_._HHH_b1_07302_0001_0000600048_0000001_0 (protein)
chain: SSSSDREEYLRAALLLLEWAVEEGDEELVEKLFHLIHLFVEDARDPEAEKRLEELYERFRSSSSS
B14: il2ra_site2_3nfp_sap_23_mot_HHH_b1_01086_000000225_0001_20_36_H_._HHH_b1_07035_0001_0000200008_0000001_0_0001_af2pred_0001_af2pred_1 (protein)
chain: SSSSSEEELEKLVEELEQLVERNDKEKFREVSSRASQLAWELGDVEVFRLLAELLLRILGSSSSS
B15: il2ra_site1_2b5i_normal_mot_HHH_b1_06833_000000178_0001_1_19_H_._HHH_b1_00669_af2_0001_0000400022_0000001_0_af2pred_dldesign_0_af2pred (protein)
chain: SSSSNPEVEKLMEELEEAAKTDEQWELYRKAKKEIIKLLLQGKPEEAKKLAEETLEEIKALSSSS
B16: il2ra_site2_3nfp_normal_mot_HHH_b1_05627_af2_000000038_0001_43_56_H_._HHH_b2_05144_0001_0000200005_0000001_1 (protein)
chain: SSSSKAEEYLRIALELLREALEEGDEEAARTIAEAALALAENLNDEEVEEEVEKVLRELESSSSS
B17: il2ra_site1_2b5i_normal_mot_HHH_b2_07442_af2_000000069_0001_1_16_H_._HHH_b1_08272_0001_0000700028_0000001_0_af2pred_0001_af2pred_1 (protein)
chain: SSSSDEEFERVLELFREASRLFQEGDPEEARKVLEEAREIAEEANDPVAREDLERFQKFINSSSS
B18: il2ra_site1_1z92_sap_12_mot_HHH_b2_04974_000000012_0001_1_17_H_._HHH_b1_06150_af2_0001_0000300041_0000001_0_0001_af2pred_dldesign_0_af2pred (protein)
chain: SSSSSSPYQRARDLILEINKARQAGDTEKFDELLAELEKLAKELESNTLLRFIEHARKELSSSSS

This is one part of the list.

The experiment deals with il2ra, P01589. The experiment is described as follows: yeast display titration.
With B1, the “apparent Kd” value is “inactive: no binding seen”.

Consider B2, for which the “apparent Kd” value was “inactive: no binding seen”.

Consider B3, for which the “apparent Kd” value is “inactive: no binding seen”.

For the molecule B4, the “apparent Kd” value is “inactive: no binding seen”.

With B5, the “apparent Kd” value was “inactive: no binding seen”.

Turning to B6, the “apparent Kd” value was “inactive: no binding seen”.

Regarding B7, the “apparent Kd” value was “inactive: no binding seen”.

As to B8, the “apparent Kd” value was “inactive: no binding seen”.

In the case of B9, the “apparent Kd” value is “inactive: no binding seen”.

Turning to B10, the “apparent Kd” value is “inactive: no binding seen”.

As to B11, the “apparent Kd” value is “inactive: no binding seen”.

Turning to B12, the “apparent Kd” value was “inactive: no binding seen”.

In the case of B13, the “apparent Kd” value is “inactive: no binding seen”.

In the case of B14, the “apparent Kd” value is “inactive: no binding seen”.

As to B15, the “apparent Kd” value is “inactive: no binding seen”.

On to B16, for which the “apparent Kd” value was “inactive: no binding seen”.

Regarding B17, the “apparent Kd” value is “inactive: no binding seen”.

Regarding B18, the “apparent Kd” value was “inactive: no binding seen”.

These data come from PMC10163288.
